{"source": "PubChem BioAssay AID1159584 (Peter MacCallum Cancer Centre, 2016)", "assay": "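Genes that CDH1-null MCF10A cells selectively depend on to survive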 (primary screen)", "cell system": "human MCF10A breast epithelial cells, parental and CDH1-null", "reagents": "siRNA against human genes", "measurement": "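Cell viability by CellTiter-Glo ATP luminescence, each line scaled to the mean of mock wells across plates, then CDH1-null over parental ratio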", "direction": "CDH1-null / parental viability ratio: higher = CDH1-null cells survive relatively better than parental", "note": "Shown is one part, drawn at random, of about 18,000 reagents tested. Not all columns of the deposit are shown. No sequences are given here. Not given: the amount of reagent, the time to read-out."}
{"gene symbol":"C16orf78","PubChem SID":"SID134320247","CDH1-null / parental viability ratio":0.91}
{"gene symbol":"PITPNB","PubChem SID":"SID152152054","CDH1-null / parental viability ratio":0.89}
{"gene symbol":"RPS21","PubChem SID":"SID152147152","CDH1-null / parental viability ratio":1.18}
{"gene symbol":"PCNX1","PubChem SID":"SID152147811","CDH1-null / parental viability ratio":1.14}
{"gene symbol":"WSB2","PubChem SID":"SID134321173","CDH1-null / parental viability ratio":0.86}
{"gene symbol":"NUDT15","PubChem SID":"SID134324293","CDH1-null / parental viability ratio":1.26}

Look-ups from above.
C16orf78 [SID134320247], CDH1-null / parental viability ratio: 0.91
Entry for NUDT15 [SID134324293] in “CDH1-null / parental viability ratio”: 1.26

Next entries follow.
{"gene symbol":"KCNK12","PubChem SID":"SID134311674","CDH1-null / parental viability ratio":1.06}
{"gene symbol":"EIF2D","PubChem SID":"SID152151178","CDH1-null / parental viability ratio":1.15}
{"gene symbol":"PRKAA2","PubChem SID":"SID152151654","CDH1-null / parental viability ratio":0.82}
{"gene symbol":"CILP2","PubChem SID":"SID152155235","CDH1-null / parental viability ratio":1.09}
{"gene symbol":"MS4A6A","PubChem SID":"SID135622416","CDH1-null / parental viability ratio":0.87}
{"gene symbol":"SDR16C5","PubChem SID":"SID152153040","CDH1-null / parental viability ratio":1.14}
{"gene symbol":"ABHD1","PubChem SID":"SID134317808","CDH1-null / parental viability ratio":1.1}
{"gene symbol":"KRI1","PubChem SID":"SID152150241","CDH1-null / parental viability ratio":1.27}
